# From paper PMC3858806
# Chains of the proteins cited; added tags and fusions are not shown. Lines headed by an entry give the natural chain unless they say otherwise; changes in a name come on top.
# UniProt O76742: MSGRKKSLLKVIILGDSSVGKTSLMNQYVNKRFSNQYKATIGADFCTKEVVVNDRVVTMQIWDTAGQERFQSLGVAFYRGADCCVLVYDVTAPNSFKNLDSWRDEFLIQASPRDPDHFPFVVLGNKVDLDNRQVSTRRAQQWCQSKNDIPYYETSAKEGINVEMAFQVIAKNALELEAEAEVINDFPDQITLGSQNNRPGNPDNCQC
# UniProt Q9W0H9: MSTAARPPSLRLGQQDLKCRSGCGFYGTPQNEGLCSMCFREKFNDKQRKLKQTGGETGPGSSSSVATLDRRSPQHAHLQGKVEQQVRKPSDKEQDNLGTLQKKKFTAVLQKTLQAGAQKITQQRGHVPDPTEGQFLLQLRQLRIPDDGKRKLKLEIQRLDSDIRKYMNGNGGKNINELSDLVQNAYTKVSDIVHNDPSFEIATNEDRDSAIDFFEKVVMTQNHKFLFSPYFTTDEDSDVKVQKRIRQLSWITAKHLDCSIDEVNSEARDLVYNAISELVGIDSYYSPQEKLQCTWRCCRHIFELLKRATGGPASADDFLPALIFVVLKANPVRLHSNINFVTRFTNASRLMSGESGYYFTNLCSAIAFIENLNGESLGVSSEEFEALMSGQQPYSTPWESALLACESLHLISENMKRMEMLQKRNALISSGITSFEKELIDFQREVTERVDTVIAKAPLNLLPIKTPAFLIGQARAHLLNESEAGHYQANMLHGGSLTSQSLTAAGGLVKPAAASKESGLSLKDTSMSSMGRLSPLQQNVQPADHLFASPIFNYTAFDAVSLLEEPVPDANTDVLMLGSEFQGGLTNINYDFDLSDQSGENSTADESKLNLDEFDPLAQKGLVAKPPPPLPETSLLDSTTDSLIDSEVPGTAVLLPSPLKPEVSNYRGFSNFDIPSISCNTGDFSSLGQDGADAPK
# UniProt Q9W2M0: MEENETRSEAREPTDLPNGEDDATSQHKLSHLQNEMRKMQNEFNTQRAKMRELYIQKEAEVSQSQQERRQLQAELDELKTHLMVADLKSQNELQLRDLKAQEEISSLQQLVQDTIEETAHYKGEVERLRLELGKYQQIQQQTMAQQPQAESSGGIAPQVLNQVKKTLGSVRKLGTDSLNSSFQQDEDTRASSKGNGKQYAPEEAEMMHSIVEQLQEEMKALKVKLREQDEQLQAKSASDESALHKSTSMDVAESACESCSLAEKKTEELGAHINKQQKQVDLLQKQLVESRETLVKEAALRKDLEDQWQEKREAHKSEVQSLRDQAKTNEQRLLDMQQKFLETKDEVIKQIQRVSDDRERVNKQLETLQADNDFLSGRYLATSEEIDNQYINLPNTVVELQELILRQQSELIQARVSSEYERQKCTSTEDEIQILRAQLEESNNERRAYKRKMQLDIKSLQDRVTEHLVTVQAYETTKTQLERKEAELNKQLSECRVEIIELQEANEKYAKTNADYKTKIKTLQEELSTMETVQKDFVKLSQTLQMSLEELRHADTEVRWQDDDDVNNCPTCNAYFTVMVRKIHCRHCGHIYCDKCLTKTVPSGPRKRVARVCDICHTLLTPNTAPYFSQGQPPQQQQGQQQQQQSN
# Key:
# [1] = biological target: T1, GST-CA-Rab5 (Drosophila Rab5Q88L, constitutively active) (Drosophila melanogaster) (UniProt Q9V3I2); experiment: pull-down; GST-tagged protein (Rab5 mutants, other Rabs, Rabex-5) on glutathione beads, nucleotide loading not stated for these; S2 cell lysate with EGFP-Rbpn-5 added, 2 h at 4 °C; washed with 250 mM NaCl; blot with anti-Rbpn-5; only the target purified
# T1 sequence: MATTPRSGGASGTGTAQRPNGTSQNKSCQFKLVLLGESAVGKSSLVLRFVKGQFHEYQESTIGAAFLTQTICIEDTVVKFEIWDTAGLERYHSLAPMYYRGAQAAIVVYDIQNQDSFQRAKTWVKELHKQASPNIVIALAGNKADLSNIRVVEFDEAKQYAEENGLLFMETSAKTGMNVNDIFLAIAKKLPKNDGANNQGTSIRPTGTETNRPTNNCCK
# [2] = biological target: GST-DN-Rab5 (Drosophila dominant-negative Rab5, printed Rab5N43S) (Drosophila melanogaster) (UniProt Q9V3I2); experiment: as above
# [3] = biological target: T2, GST-Rab11 (Drosophila) (Drosophila melanogaster) (UniProt O18335); experiment: as above
# T2 sequence: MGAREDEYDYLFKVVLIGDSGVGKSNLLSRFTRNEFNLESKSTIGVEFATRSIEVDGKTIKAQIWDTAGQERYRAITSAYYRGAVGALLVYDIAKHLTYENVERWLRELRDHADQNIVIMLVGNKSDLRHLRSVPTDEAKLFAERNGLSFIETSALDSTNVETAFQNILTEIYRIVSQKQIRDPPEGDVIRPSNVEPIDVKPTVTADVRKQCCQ
# [4] = biological target: GST-Rab7 (Drosophila) (Drosophila melanogaster) (UniProt O76742); experiment: as above
# [5] = biological target: GST-Rabex-5 (Drosophila) (Drosophila melanogaster) (UniProt Q9W0H9); experiment: as above
# [6] = biological target: T3, GST-Rab5 (Drosophila, wild type) (Drosophila melanogaster) (UniProt Q9V3I2); experiment: pull-down; GST-Rab5 on Glutathione Sepharose 4B beads loaded with GDP (90 min, room temperature); S2 cell lysate with EGFP-Rbpn-5 added, 2 h at 4 °C; washed with 250 mM NaCl; blot with anti-Rbpn-5; only the target purified
# T3 sequence: T1 sequence with L88Q
# [7] = biological target: T3, GST-Rab5 (Drosophila, wild type) (Drosophila melanogaster); experiment: pull-down; GST-Rab5 on Glutathione Sepharose 4B beads loaded with GTP (90 min, room temperature); S2 cell lysate with the EGFP-tagged Rbpn-5 construct added, 2 h at 4 °C; washed with 250 mM NaCl; blot with anti-Rbpn-5 or anti-EGFP; only the target purified
Substance,binding [1],binding [2],binding [3],binding [4],binding [5],binding [6],binding [7]
"EGFP-Rbpn-5 (Drosophila Rabaptin-5, full length) (from UniProt Q9W2M0)",binds,no binding,no binding,no binding,binds,no binding (only in the presence of GDP),binds
"EGFP-Rbpn-5-C (C-terminal half of Rbpn-5, amino acids 340-642) (Drosophila melanogaster) (domain or fragment)",–,–,–,–,–,–,binds
"EGFP-Rbpn-5-N (N-terminal half of Rbpn-5, amino acids 1-345) (Drosophila melanogaster) (domain or fragment)",–,–,–,–,–,–,no binding

# Where a chain is given by its changes, count along the chain named. Results are given in words; binding and its absence hold for the method and conditions named. Binding seen in cells or lysates may run through a third protein. For part of these data: A result given as binding can be weak or reduced; the word gives no strength. For part of these data: Sequences can lack the tags named with a protein.
